Laboratory results: paper PMC9374436
Read-outs that look alike come from different tables or passages of the source. Results are given in words; binding and its absence hold for the method and conditions named. Binding seen in cells or lysates may run through a third protein. These calls come from enrichment with a bait or labelling near it, and not all partners need be listed. Sequences can lack the tags named with a protein.

Protein sequences, listed by entry. Tags and fused reporters are not part of them.
UniProt P38682: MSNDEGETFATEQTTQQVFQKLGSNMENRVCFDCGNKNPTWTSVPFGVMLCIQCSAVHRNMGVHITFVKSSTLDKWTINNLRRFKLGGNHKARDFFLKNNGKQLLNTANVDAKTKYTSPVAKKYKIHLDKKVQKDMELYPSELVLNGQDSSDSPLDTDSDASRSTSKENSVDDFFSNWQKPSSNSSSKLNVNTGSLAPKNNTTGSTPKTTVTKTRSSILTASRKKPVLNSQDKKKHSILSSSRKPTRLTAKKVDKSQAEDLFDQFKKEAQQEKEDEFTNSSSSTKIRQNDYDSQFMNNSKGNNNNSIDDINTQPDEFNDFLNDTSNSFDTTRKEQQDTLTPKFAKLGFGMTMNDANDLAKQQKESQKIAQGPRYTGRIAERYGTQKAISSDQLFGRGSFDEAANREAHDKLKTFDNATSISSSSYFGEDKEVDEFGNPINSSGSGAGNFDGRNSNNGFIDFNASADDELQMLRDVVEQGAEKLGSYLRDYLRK
UniProt Q01590: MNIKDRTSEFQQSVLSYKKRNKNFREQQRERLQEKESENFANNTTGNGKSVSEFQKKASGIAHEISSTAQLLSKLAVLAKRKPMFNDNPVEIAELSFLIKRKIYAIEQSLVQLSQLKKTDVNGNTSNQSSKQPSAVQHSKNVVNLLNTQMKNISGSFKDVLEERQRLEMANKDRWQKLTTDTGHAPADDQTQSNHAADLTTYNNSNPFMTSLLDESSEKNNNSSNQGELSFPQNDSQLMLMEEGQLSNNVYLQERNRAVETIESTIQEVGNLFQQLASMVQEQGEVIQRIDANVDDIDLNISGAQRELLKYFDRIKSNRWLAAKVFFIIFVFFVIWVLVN

Tests used:
[1] = target: T1, αCOP-FLAG (S. cerevisiae) (UniProt P53622); experiment: affinity purification with mass spectrometry; SILAC; αCOP-FLAG cells against untagged cells; anti-FLAG resin, ubiquitin-preserved conditions
T1 sequence: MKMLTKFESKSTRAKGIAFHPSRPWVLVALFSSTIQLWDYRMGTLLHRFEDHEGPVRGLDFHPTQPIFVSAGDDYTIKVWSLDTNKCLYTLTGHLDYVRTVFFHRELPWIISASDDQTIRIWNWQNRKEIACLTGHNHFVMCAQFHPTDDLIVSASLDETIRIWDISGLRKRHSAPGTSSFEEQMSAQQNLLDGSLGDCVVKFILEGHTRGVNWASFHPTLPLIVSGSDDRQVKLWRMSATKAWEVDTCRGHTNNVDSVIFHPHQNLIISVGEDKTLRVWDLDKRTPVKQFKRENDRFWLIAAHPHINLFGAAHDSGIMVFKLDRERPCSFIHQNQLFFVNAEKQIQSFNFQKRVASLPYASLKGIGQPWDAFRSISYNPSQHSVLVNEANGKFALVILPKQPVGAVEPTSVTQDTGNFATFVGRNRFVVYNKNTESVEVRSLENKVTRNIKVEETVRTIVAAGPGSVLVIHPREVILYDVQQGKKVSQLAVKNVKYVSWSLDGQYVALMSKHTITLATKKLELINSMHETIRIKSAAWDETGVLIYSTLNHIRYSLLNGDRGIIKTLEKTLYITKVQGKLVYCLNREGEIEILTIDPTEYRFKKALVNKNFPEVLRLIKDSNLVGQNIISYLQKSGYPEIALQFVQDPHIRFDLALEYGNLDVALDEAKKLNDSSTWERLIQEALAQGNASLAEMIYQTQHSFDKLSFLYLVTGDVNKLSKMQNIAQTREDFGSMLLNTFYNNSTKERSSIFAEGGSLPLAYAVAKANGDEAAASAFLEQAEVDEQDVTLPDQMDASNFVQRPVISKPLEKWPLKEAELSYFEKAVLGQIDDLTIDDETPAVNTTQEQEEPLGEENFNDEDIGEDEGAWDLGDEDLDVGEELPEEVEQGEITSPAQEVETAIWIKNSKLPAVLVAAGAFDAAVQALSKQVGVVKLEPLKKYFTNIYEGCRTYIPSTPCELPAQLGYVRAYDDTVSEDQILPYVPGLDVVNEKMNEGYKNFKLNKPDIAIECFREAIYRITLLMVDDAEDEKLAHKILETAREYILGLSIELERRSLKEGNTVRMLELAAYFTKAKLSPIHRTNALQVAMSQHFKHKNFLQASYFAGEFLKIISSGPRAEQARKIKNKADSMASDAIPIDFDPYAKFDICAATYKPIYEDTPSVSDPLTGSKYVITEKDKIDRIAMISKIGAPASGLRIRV

[2] = target: T2, Gos1-FLAG (S. cerevisiae) (UniProt P38736); experiment: affinity purification with mass spectrometry; SILAC; Gos1-FLAG cells against untagged cells; anti-FLAG M2 resin, lysis with 0.2% NP-40 and DUB inhibitors (ubiquitination preserved)
T2 sequence: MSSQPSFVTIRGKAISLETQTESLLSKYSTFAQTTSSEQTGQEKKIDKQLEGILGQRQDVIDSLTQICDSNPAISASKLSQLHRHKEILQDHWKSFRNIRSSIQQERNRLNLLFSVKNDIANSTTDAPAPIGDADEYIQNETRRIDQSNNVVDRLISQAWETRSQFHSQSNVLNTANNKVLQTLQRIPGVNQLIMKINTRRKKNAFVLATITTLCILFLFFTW

[3] = target: T2, Gos1-FLAG (S. cerevisiae); experiment: as above; remark: listed apart in the source
[4] = target: T3, Gos1-FLAG (S. cerevisiae), P38736; experiment: as above; settings: remark: other sources report otherwise
T3 chain: T2 sequence

ArfGAP Glo3 (from UniProt P38682 1-493)
binding [1]: binds

Sed5 (from UniProt Q01590 1-340)
binding [2]: binds

B1: Sec17 (protein, UniProt P32602 1-292)
chain: MSDPVELLKRAEKKGVPSSGFMKLFSGSDSYKFEEAADLCVQAATIYRLRKELNLAGDSFLKAADYQKKAGNEDEAGNTYVEAYKCFKSGGNSVNAVDSLENAIQIFTHRGQFRRGANFKFELGEILENDLHDYAKAIDCYELAGEWYAQDQSVALSNKCFIKCADLKALDGQYIEASDIYSKLIKSSMGNRLSQWSLKDYFLKKGLCQLAATDAVAAARTLQEGQSEDPNFADSRESNFLKSLIDAVNEGDSEQLSEHCKEFDNFMRLDKWKITILNKIKESIQQQEDDLL
binding [3]: binds

B2: Sly1 (protein, UniProt P22213 1-666)
chain: MAVEEIASRKDISLRDMQISAILKMLFLNKDLNNNDNITTITDDIFNQQEIIWKVLILDIKSTATISSVLRVNDLLKAGITVHSLIKQDRSPLPDVPAIYFVSPTKENIDIIVNDLKSDKYSEFYINFTSSLPRNLLEDLAQQVSITGKSDKIKQVYDQYLDFIVTEPELFSLEISNAYLTLNDPKTTEEEITGLCANIADGLFNTVLTINSIPIIRAAKGGPAEIIAEKLGTKLRDFVINTNSSSTSTLQGNDSLERGVLIILDRNIDFASMFSHSWIYQCMVFDIFKLSRNTVTIPLESKENGTDNTTAKPLATKKYDIEPNDFFWMENSHLPFPEAAENVEAALNTYKEEAAEITRKTGVTNISDLDPNSNNDTVQIQEVVKKLPELTAKKNTIDTHMNIFAALLSQLESKSLDTFFEVEQDPGSTKTRSRFLDILKDGKTNNLEDKLRSFIVLYLTSTTGLPKDFVQNVENYFKENDYDINALKYVYKLREFMQLSNMSLQNKSLEDGSDSAFKPSNLTLSGIYGLTEGKLQGGVGSLISGIKKLLPEKKTIPITNVVDAIMDPLNSSQKNLETTDSYLYIDPKITRGSHTRKPKRQSYNKSLVFVVGGGNYLEYQNLQEWAHSQLHNPKKVMYGSTAITTPAEFLNEISRLGASNSSNNDA
binding [3]: binds

B3: Sft1 (protein, UniProt P43682 1-97)
chain: MSNSRYSQTESNNDRKLEGLANKLATFRNINQEIGDRAVSDSSVINQMTDSLGSMFTDIKNSSSRLTRSLKAGNSIWRMVGLALLIFFILYTLFKLF
binding [3]: binds

B4: Ykt6, P36015 1-200 (protein)
chain: MRIYYIGVFRSGGEKALELSEVKDLSQFGFFERSSVGQFMTFFAETVASRTGAGQRQSIEEGNYIGHVYARSEGICGVLITDKEYPVRPAYTLLNKILDEYLVAHPKEEWADVTETNDALKMKQLDTYISKYQDPSQADAIMKVQQELDETKIVLHKTIENVLQRGEKLDNLVDKSESLTASSKMFYKQAKKSNSCCIIM
binding [4]: binds
